According to the supplement of paper PMC7661543:
± gives the standard deviation of the averaged measurements. The effect of the compound repeats well; differences between the knockouts mostly do not.

Test system: HCC-38
Assay: relative cell number vs DMSO control (72 h) (% of DMSO); higher = less growth inhibition (more cells)
Experimental: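 QMAP-Seq: a pool of 5 breast cancer cell lines (ZR-75-1, SKBR3, HCC-38, MDA-MB-231, BT-20), each carrying 12 doxycycline-inducible Cas9 sgRNA perturbations (11 knockouts plus non-targeting sgNT), was treated with compounds for 72 h at four 10-fold doses (10 nM-10 uM or 1 nM-1 uM range). Barcodes were amplified and sequenced, and cell number was interpolated from 293T spike-in standard curves. The result is expressed as % of the median of DMSO wells. Two biological replicates.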

c1ccc2c(Oc3nc(Nc4ccc(N5CCOCC5)cc4)c4ncn(C5CCCCC5)c4n3)cccc2c1 [Purmorphamine]
Details | relative cell number
sgRNA knockout: sgATF3, 10 nM | 101 ± 1.9
sgRNA knockout: sgATF3, 100 nM | 105.42 ± 0.0017
sgRNA knockout: sgATF3, 1000 nM | 92.3 ± 6.7
sgRNA knockout: sgATF3, 10000 nM | 73.8 ± 10
sgRNA knockout: sgATF4, 10 nM | 95.2 ± 4.1
sgRNA knockout: sgATF4, 100 nM | 95.3 ± 3.9
sgRNA knockout: sgATF4, 1000 nM | 89.7 ± 2
sgRNA knockout: sgATF4, 10000 nM | 67.7 ± 7.9
sgRNA knockout: sgATF6, 10 nM | 91.8 ± 1
sgRNA knockout: sgATF6, 100 nM | 82.41 ± 0.18
sgRNA knockout: sgATF6, 1000 nM | 94.85 ± 0.69
sgRNA knockout: sgATF6, 10000 nM | 65.5 ± 2
sgRNA knockout: sgATG7, 10 nM | 87.8 ± 4.7
sgRNA knockout: sgATG7, 100 nM | 93.9 ± 12
sgRNA knockout: sgATG7, 1000 nM | 86.9 ± 3.3
sgRNA knockout: sgATG7, 10000 nM | 74.7 ± 3.9
sgRNA knockout: sgERN1, 10 nM | 97.6 ± 9.4
sgRNA knockout: sgERN1, 100 nM | 98.2 ± 2.1
sgRNA knockout: sgERN1, 1000 nM | 91 ± 3.3
sgRNA knockout: sgERN1, 10000 nM | 75.6 ± 13
sgRNA knockout: sgHSF1, 10 nM | 79.7 ± 8.7
sgRNA knockout: sgHSF1, 100 nM | 82.6 ± 6.4
sgRNA knockout: sgHSF1, 1000 nM | 86.4 ± 18
sgRNA knockout: sgHSF1, 10000 nM | 82.4 ± 6.8
sgRNA knockout: sgHSF2, 10 nM | 99.2 ± 2.7
sgRNA knockout: sgHSF2, 100 nM | 112 ± 11
sgRNA knockout: sgHSF2, 1000 nM | 88.2 ± 2.6
sgRNA knockout: sgHSF2, 10000 nM | 78.8 ± 1
sgRNA knockout: sgKEAP1, 10 nM | 97.6 ± 19
sgRNA knockout: sgKEAP1, 100 nM | 94.6 ± 24
sgRNA knockout: sgKEAP1, 1000 nM | 94.9 ± 5.7
sgRNA knockout: sgKEAP1, 10000 nM | 101 ± 23
sgRNA knockout: sgNFE2L2, 10 nM | 101 ± 4.8
sgRNA knockout: sgNFE2L2, 100 nM | 97.3 ± 8.5
sgRNA knockout: sgNFE2L2, 1000 nM | 83 ± 3.3
sgRNA knockout: sgNFE2L2, 10000 nM | 69 ± 8.2
sgRNA knockout: sgSLC35F2, 10 nM | 95.5 ± 5.5
sgRNA knockout: sgSLC35F2, 100 nM | 90.6 ± 5.4
sgRNA knockout: sgSLC35F2, 1000 nM | 91.4 ± 0.11
sgRNA knockout: sgSLC35F2, 10000 nM | 71.2 ± 8.5
sgRNA knockout: sgXBP1, 10 nM | 102 ± 2.9
sgRNA knockout: sgXBP1, 100 nM | 98.7 ± 0.9
sgRNA knockout: sgXBP1, 1000 nM | 89.6 ± 7.5
sgRNA knockout: sgXBP1, 10000 nM | 64.7 ± 7.3

CC(C)(C)c1ccc(S(=O)(=O)NCc2ccc(C(=O)Nc3cccnc3)cc2)cc1 [STF31]
Details | relative cell number
sgRNA knockout: sgATF3, 10 nM | 96.3 ± 8.2
sgRNA knockout: sgATF3, 100 nM | 79.9 ± 9
sgRNA knockout: sgATF3, 1000 nM | 86.9 ± 6.7
sgRNA knockout: sgATF3, 10000 nM | 74.7 ± 12
sgRNA knockout: sgATF4, 10 nM | 91 ± 6.3
sgRNA knockout: sgATF4, 100 nM | 77.6 ± 2.1
sgRNA knockout: sgATF4, 1000 nM | 92.9 ± 7.1
sgRNA knockout: sgATF4, 10000 nM | 74.9 ± 6.4
sgRNA knockout: sgATF6, 10 nM | 106 ± 13
sgRNA knockout: sgATF6, 100 nM | 96.2 ± 15
sgRNA knockout: sgATF6, 1000 nM | 86.5 ± 3.3
sgRNA knockout: sgATF6, 10000 nM | 69.8 ± 7.8
sgRNA knockout: sgATG7, 10 nM | 93.6 ± 4.6
sgRNA knockout: sgATG7, 100 nM | 78.325 ± 0.0047
sgRNA knockout: sgATG7, 1000 nM | 93.8 ± 14
sgRNA knockout: sgATG7, 10000 nM | 77.3 ± 4.6
sgRNA knockout: sgERN1, 10 nM | 96.7 ± 11
sgRNA knockout: sgERN1, 100 nM | 83.44 ± 0.59
sgRNA knockout: sgERN1, 1000 nM | 84.8 ± 2.1
sgRNA knockout: sgERN1, 10000 nM | 74.6 ± 3
sgRNA knockout: sgHSF1, 10 nM | 107 ± 13
sgRNA knockout: sgHSF1, 100 nM | 103 ± 1.8
sgRNA knockout: sgHSF1, 1000 nM | 78 ± 1.7
sgRNA knockout: sgHSF1, 10000 nM | 61 ± 4.5
sgRNA knockout: sgHSF2, 10 nM | 102 ± 11
sgRNA knockout: sgHSF2, 100 nM | 81.6 ± 5
sgRNA knockout: sgHSF2, 1000 nM | 91.7 ± 7.9
sgRNA knockout: sgHSF2, 10000 nM | 77.8 ± 7.2
sgRNA knockout: sgKEAP1, 10 nM | 132 ± 1.7
sgRNA knockout: sgKEAP1, 100 nM | 94.7 ± 16
sgRNA knockout: sgKEAP1, 1000 nM | 70.9 ± 18
sgRNA knockout: sgKEAP1, 10000 nM | 85.8 ± 5.4
sgRNA knockout: sgNFE2L2, 10 nM | 79.5 ± 11
sgRNA knockout: sgNFE2L2, 100 nM | 70.4 ± 3.4
sgRNA knockout: sgNFE2L2, 1000 nM | 86.5 ± 2.8
sgRNA knockout: sgNFE2L2, 10000 nM | 76.4 ± 11
sgRNA knockout: sgSLC35F2, 10 nM | 85.1 ± 3
sgRNA knockout: sgSLC35F2, 100 nM | 83.2 ± 2.6
sgRNA knockout: sgSLC35F2, 1000 nM | 92.5 ± 1.2
sgRNA knockout: sgSLC35F2, 10000 nM | 72.1 ± 6.7
sgRNA knockout: sgXBP1, 10 nM | 90.4 ± 4
sgRNA knockout: sgXBP1, 100 nM | 75.4 ± 2
sgRNA knockout: sgXBP1, 1000 nM | 95.5 ± 17
sgRNA knockout: sgXBP1, 10000 nM | 73.3 ± 7.5

CN1CCN(CCOc2cc(OC3CCOCC3)c3c(Nc4c(Cl)ccc5c4OCO5)ncnc3c2)CC1 [Saracatinib]
Details | relative cell number
sgRNA knockout: sgATF3, 10 nM | 79.9 ± 7.3
sgRNA knockout: sgATF3, 100 nM | 92.1 ± 4.3
sgRNA knockout: sgATF3, 1000 nM | 80.4 ± 5.6
sgRNA knockout: sgATF3, 10000 nM | 67 ± 16
sgRNA knockout: sgATF4, 10 nM | 79.3 ± 5.3
sgRNA knockout: sgATF4, 100 nM | 82.6 ± 9.1
sgRNA knockout: sgATF4, 1000 nM | 81.1 ± 10
sgRNA knockout: sgATF4, 10000 nM | 70.4 ± 16
sgRNA knockout: sgATF6, 10 nM | 86.9 ± 18
sgRNA knockout: sgATF6, 100 nM | 98.2 ± 33
sgRNA knockout: sgATF6, 1000 nM | 81.7 ± 1.8
sgRNA knockout: sgATF6, 10000 nM | 59.8 ± 3.3
sgRNA knockout: sgATG7, 10 nM | 80.3 ± 5.8
sgRNA knockout: sgATG7, 100 nM | 89.4 ± 7.7
sgRNA knockout: sgATG7, 1000 nM | 79.5 ± 1.1
sgRNA knockout: sgATG7, 10000 nM | 66.2 ± 5.6
sgRNA knockout: sgERN1, 10 nM | 80.5 ± 8.6
sgRNA knockout: sgERN1, 100 nM | 97.4 ± 8.5
sgRNA knockout: sgERN1, 1000 nM | 76.6 ± 4.9
sgRNA knockout: sgERN1, 10000 nM | 63.9 ± 4.6
sgRNA knockout: sgHSF1, 10 nM | 97.5 ± 13
sgRNA knockout: sgHSF1, 100 nM | 87.7 ± 23
sgRNA knockout: sgHSF1, 1000 nM | 72.2 ± 5.4
sgRNA knockout: sgHSF1, 10000 nM | 53.5 ± 13
sgRNA knockout: sgHSF2, 10 nM | 83 ± 0.86
sgRNA knockout: sgHSF2, 100 nM | 85.1 ± 5.9
sgRNA knockout: sgHSF2, 1000 nM | 81 ± 0.82
sgRNA knockout: sgHSF2, 10000 nM | 67 ± 6.5
sgRNA knockout: sgKEAP1, 10 nM | 101 ± 14
sgRNA knockout: sgKEAP1, 100 nM | 95.1 ± 21
sgRNA knockout: sgKEAP1, 1000 nM | 93 ± 7.6
sgRNA knockout: sgKEAP1, 10000 nM | 51.2 ± 9.4
sgRNA knockout: sgNFE2L2, 10 nM | 75.1 ± 6.2
sgRNA knockout: sgNFE2L2, 100 nM | 79.9 ± 2.4
sgRNA knockout: sgNFE2L2, 1000 nM | 70.3 ± 12
sgRNA knockout: sgNFE2L2, 10000 nM | 66.8 ± 18
sgRNA knockout: sgSLC35F2, 10 nM | 81.6 ± 5.3
sgRNA knockout: sgSLC35F2, 100 nM | 96.1 ± 6.6
sgRNA knockout: sgSLC35F2, 1000 nM | 77.7 ± 5.4
sgRNA knockout: sgSLC35F2, 10000 nM | 67.46 ± 0.13
sgRNA knockout: sgXBP1, 10 nM | 78.87 ± 0.18
sgRNA knockout: sgXBP1, 100 nM | 89 ± 8.2
sgRNA knockout: sgXBP1, 1000 nM | 81.5 ± 12
sgRNA knockout: sgXBP1, 10000 nM | 69 ± 8.9
